Measured values from PubChem BioAssay AID2685 (National Center for Advancing Translational Sciences (NCATS), 2010).
This is one part of the list. The main result of the screen is listed elsewhere. These columns were measured beside it and carry no call. Compounds called inactive in the main read-out are mostly missing here. Words in brackets tell the shape of the fitted curve; partial curves, single points and poor fits give uncertain potencies.

Experiment: qHTS Assay for Lipid Storage Modulators in Drosophila S3 Cells;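 for cell number change: cells counted by Cell Tracker Red CMTPX staining in the red channel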
Details: BODIPY lipid droplet fluorescence, 18-24 h; for cell number change: measured here: cell count max response, cells fed with added oleic acid
In short: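 Drosophila S3 cells loaded with oleic acid (400 uM, as added) and compounds at several concentrations; lipid droplets imaged by 488-nm laser-scanning cytometry, 500–530 nm intensity and object ratio to cell channel. Percent activity normalized to 20 uM Triacsin C.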

[1] = measured here: lipid fluorescence (Fed channel) AC50, cells fed with added oleic acid
[2] = measured here: cell number channel AC50, cells fed with added oleic acid

With COc1ccc(-c2nc(SCC(=O)Nc3cccc(S(N)(=O)=O)c3)n[nH]2)cc1 the cell number change was -10%.
For Cc1cccc(-n2ncc3c2CCCC3NC(=O)Cn2cccn2)c1C (stereo not drawn), the cell number change was -4.53% and the AC50 [1] was 0.58 µM [falling, full curve].
In the case of CCC(C)(C(=O)NC1CCCCC1)N(Cc1ccco1)C(=O)CNC(=O)c1ccccc1 (stereo not drawn), the cell number change is reported as 40.5%, the AC50 [2] is reported as 5.8 µM [rising, single point] and the AC50 [1] is reported as 5.17 µM [rising, single point].
With O=C(O)COc1ccccc1/C=N/NC(=O)CSc1nc2ccccc2n1Cc1ccc(Cl)cc1 the cell number change was 63.5%.
With Cc1nc(CN2CCOCC2)cc(=O)[nH]1 the cell number change was -54.6%, the AC50 [2] was 29.1 µM [falling, single point] and the AC50 [1] was 20.6 µM [falling, single point].
For Cc1ccc(CNC(=O)CN(C)C2=NS(=O)(=O)c3ccccc32)cc1, the cell number change was -7.91% and the AC50 [1] was 6.51 µM [falling, single point].
With CC(=O)N1CC(C)Sc2ccc(S(=O)(=O)NCc3ccccc3Cl)cc21 (stereo not drawn) the cell number change was 4.42% and the AC50 [1] was 29.1 µM [falling, single point].
In the case of N#C/C(=C\c1ccncc1)c1nc2c(s1)CCCC2, the cell number change is reported as 66%.
For Cc1cccc(N(O)C(=O)Nc2cccc(Cl)c2)c1, the cell number change was -21.7%.
In the case of Cc1cccc(NC(=O)C(=O)NCc2ccc3c(c2)OCO3)c1C, the cell number change is reported as 23.2% and the AC50 [1] is reported as 1.84 µM [rising, partial curve, poor fit].
With O=c1cc(-c2ccncc2)oc2c1ccc1ccccc12 the cell number change was -13.8% and the AC50 [1] was 29.1 µM [falling, single point].
For CC(C)(C)C(=O)OCc1nc(-c2ccc(O)c(O)c2)cs1, the cell number change was -2.24% and the AC50 [1] was 32.6 µM [falling, single point].
With O=C(Nc1ccc(C2=NCCN2)cc1)c1ccc(Cl)c(C(=O)Nc2ccc(C3=NCCN3)cc2)c1 the cell number change was 79.4%, the AC50 [2] was 1.16 µM [rising, full curve] and the AC50 [1] was 1.64 µM [rising, full curve].
For COc1ccccc1N(CCC#N)C(=O)CSc1nnc2ccccn12, the cell number change was -26%, the AC50 [2] was 0.82 µM [falling, full curve, poor fit] and the AC50 [1] was 1.3 µM [falling, full curve].
With COc1cccc(-n2cnc3scc(-c4cccs4)c3c2=O)c1 the cell number change was -13.4%.
Cc1cc(C)c(C(=O)NCC2CCCO2)c(C)c1C(=O)NCC1CCCO1 (stereo not drawn) showed a cell number change of -0.901%.
With O=S(=O)(c1cnccc1N1CCN(/N=C/c2ccccc2)CC1)N1CCCCC1 the cell number change was -31.9% and the AC50 [2] was 8.2 µM [falling, partial curve, poor fit].
With COc1ccc(-c2oc3ccccc3c(=O)c2OC(C)=O)cc1 the cell number change was -29.6%, the AC50 [2] was 4.11 µM [falling, full curve, poor fit] and the AC50 [1] was 3.26 µM [falling, partial curve, poor fit].
With CCNc1nc(NCC)n2c(SCC(=O)c3ccccc3F)nnc2n1 the cell number change was 29.1% and the AC50 [1] was 6.51 µM [falling, single point].
In the case of CC(=O)Nc1cccc(NC(=O)C2CCCN2C(=O)Nc2cccc(F)c2)c1 (stereo not drawn), the cell number change is reported as 5.78% and the AC50 [1] is reported as 29.1 µM [rising, single point].
With Cc1cc(C)n2nc(N)c(N=Nc3ccc(Cl)cc3)c2n1 the cell number change was 17% and the AC50 [1] was 1.84 µM [rising, full curve].
For Cc1ccc(NC(=O)C2CCCN2C(=O)OCc2ccccc2)c(O)c1 (stereo not drawn), the cell number change was 21% and the AC50 [1] was 0.146 µM [rising, full curve, poor fit].
For Cc1cc(Cl)ccc1NC(=O)C(=O)N/N=C/c1ccc2c(c1)OCO2, the cell number change was -4.78% and the AC50 [1] was 6.51 µM [rising, single point].
For CN(C)c1ccc(C(=O)OCC(=O)NC2CCCCCC2)cc1, the AC50 [1] was 6.51 µM [rising, single point].
In the case of CC(=O)N1c2ccc(S(=O)(=O)NCc3ccccc3Cl)cc2CC1C (stereo not drawn), the AC50 [1] is reported as 5.17 µM [falling, single point].
For NC(=NCCCCCCN=C(N)/N=C(\N)Nc1ccc(Cl)cc1)/N=C(\N)Nc1ccc(Cl)cc1, the cell number change was -27.4% and the AC50 [1] was 29.1 µM [falling, single point].
In the case of COc1cc(CCCN2CCNC[C@@H]2Cc2ccc(O)cc2)cc(OC)c1OC, the cell number change is reported as 23.6% and the AC50 [1] is reported as 14.6 µM [rising, single point].
With O=C(/C=C/c1cccc(Cl)c1)NCc1cccs1 the cell number change was 37.5%, the AC50 [2] was 1.46 µM [rising, single point] and the AC50 [1] was 29.1 µM [rising, single point].
Work on COc1ccc(NC(=O)CC(C)=O)c(OC)c1 yielded a cell number change of -0.131%.
For C/C(=N\Nc1ccc(S(=O)(=O)Nc2ccccc2)cc1[N+](=O)[O-])c1ccncc1, the cell number change was -23.9% and the AC50 [1] was 0.651 µM [falling, full curve].
In the case of Cc1ccc(S(=O)(=O)NC(CC(=O)O)c2cccs2)cc1 (stereo not drawn), the cell number change is reported as -1.22% and the AC50 [1] is reported as 0.00461 µM [falling, full curve, poor fit].
COc1ccc(/C=C2\CN(Cc3ccccc3)C/C(=C\c3ccc(OC)cc3)C2=O)cc1 showed a cell number change of 12%.
O=C(CSc1nnc(NC(=O)c2ccccc2F)s1)NC1CC1 gave a cell number change of 11.8%.
With O=C(O)c1ccc(-n2ncc3c2/C(=C/c2cccc([N+](=O)[O-])c2)CC3)cc1 the AC50 [1] was 0.517 µM [falling, full curve].
In the case of Cc1cc(C)n(C(=O)/C(C#N)=C/N(C)C)n1, the AC50 [1] is reported as 0.731 µM [rising, single point].
With COc1ccc(/C=C(\NC(=O)c2ccco2)C(=O)NCCc2nc3ccccc3[nH]2)cc1 the cell number change was 27.1% and the AC50 [1] was 0.731 µM [falling, single point].
With CCN(CC)c1ccc(/C=C2\CCC(/C=N/NC(=O)c3ccc(=O)n(C)c3)=C2N2CCOCC2)cc1 the cell number change was -11.4% and the AC50 [1] was 6.51 µM [falling, partial curve].
With Cc1ccc(CN(c2ccc(C(=O)NCc3ccc4c(c3)OCO4)cc2)S(C)(=O)=O)cc1 the cell number change was 0.965% and the AC50 [2] was 4.11 µM [rising, partial curve, poor fit].
For Cc1cc(C)c(S(=O)(=O)NCC2CCC(C(=O)NCCCN3CCC(C)CC3)CC2)c(C)c1 (stereo not drawn), the cell number change was -0.33% and the AC50 [1] was 0.13 µM [rising, full curve, poor fit].
For COc1ccccc1C1CC(=O)NC(SCC(=O)Nc2ccccc2)=C1C#N (stereo not drawn), the AC50 [1] was 0.0058 µM [falling, full curve, poor fit].
In the case of Nc1cc(Cl)ccc1Oc1ccccc1, the cell number change is reported as -21%.
For C#CCOCCOCCOCCNc1nc(N2CCOCC2)nc(N2CCN(C(=O)CCCCCCCCCCNC(=O)[C@H](CO)n3cc(CCCCCN)nn3)CC2)n1, the cell number change was -10.7% and the AC50 [1] was 25.9 µM [falling, partial curve, poor fit].
For CCn1c(SCC(=O)NCc2ccco2)nnc1-c1ccc(N)cc1, the cell number change was -31.1% and the AC50 [2] was 3.66 µM [falling, full curve].
With c1coc(-c2nnc(-c3ccc4c(c3)OCO4)o2)c1 the cell number change was -18.8% and the AC50 [1] was 11.6 µM [rising, partial curve, poor fit].
For Cc1[nH]nc(N2CCCCCC2)c1[N+](=O)[O-], the cell number change was -0.486% and the AC50 [1] was 7.31 µM [rising, single point].
Work on CC(C)(C)NC(=O)C1N(c2cccnc2)C(=O)C2C(C(=O)Nc3ccccc3F)C3(C)C=CC21O3 (stereo not drawn) yielded a cell number change of 4.5%.
CNC(=O)c1ccsc1NC(=O)c1ccc(S(=O)(=O)N2CCCc3ccccc32)cc1 showed a cell number change of 12.7%.
With NC(=O)N/N=C/c1ccc(-c2ccc([N+](=O)[O-])cc2)o1 the cell number change was 37.1%, the AC50 [2] was 1.84 µM [rising, partial curve] and the AC50 [1] was 5.8 µM [rising, full curve].
With N#Cc1cccc(NC(=O)COC(=O)c2ccc3c(=O)n4c(nc3c2)CCC4)c1 the cell number change was 40.6% and the AC50 [2] was 9.2 µM [rising, partial curve].
NCCSC1CC(=O)N(c2ccc(Cl)c(Cl)c2)C1=O (stereo not drawn) showed a cell number change of -7.87%.
In the case of CCOC(=O)C(CCSC)NC(=O)CN (stereo not drawn), the cell number change is reported as -22.4%.
For Cc1ccc2c(c1)CN1CN2Cc2cc(C)ccc21, the cell number change was -2.39% and the AC50 [2] was 0.146 µM [rising, full curve, poor fit].
In the case of CC(=O)Nc1nc2cc(N)ccc2s1, the cell number change is reported as 0.368% and the AC50 [1] is reported as 0.517 µM [falling, partial curve, poor fit].
For CC(C)Oc1ccc(OCCn2c(S(=O)(=O)O)nc3c(N)ncnc32)cc1, the cell number change was 16.2% and the AC50 [1] was 29.1 µM [rising, single point].
With CC(C)N1C(=O)c2ccc(C(=O)O)cc2C1=O the cell number change was -26.6% and the AC50 [1] was 8.2 µM [falling, partial curve].
With CC(C)[C@H](NC(=O)C1CCN(C(=O)[C@H](Cc2ccccc2)NC(=O)OC(C)(C)C)CC1)C(=O)O the cell number change was 19.8%.
With Cc1ccc(C)c(NC(=O)Nn2cnnc2)c1 the cell number change was 15.3% and the AC50 [1] was 29.1 µM [rising, single point].
With O=C(O)c1cccc(NC(=O)C2CCCO2)c1 (stereo not drawn) the cell number change was -97.6% and the AC50 [2] was 25.9 µM [falling, partial curve].
For COC(=O)Nc1sc2c(c1C(=O)NCc1ccco1)CCCC2, the cell number change was 37.1% and the AC50 [2] was 0.731 µM [rising, full curve].
NC(=O)c1nsc(C(=O)N(c2ccccc2F)C(C(=O)NCc2ccc(F)cc2)c2ccc(O)cc2)c1N (stereo not drawn) gave a cell number change of 28.2%.
For Cc1cc(N2CCN(C(=O)c3ccco3)CC2)n2nc(C)c(-c3ccc(Cl)cc3)c2n1, the AC50 [2] was 0.92 µM [rising, partial curve] and the AC50 [1] was 2.59 µM [rising, partial curve].
For Cn1c(=O)n(C)c2cc(S(=O)(=O)NCCc3ccccc3)ccc21, the cell number change was -23.6% and the AC50 [1] was 1.03 µM [rising, full curve, poor fit].
With CC/C(C)=N/Nc1cccc([N+](=O)[O-])c1 the cell number change was 13.9% and the AC50 [1] was 14.6 µM [rising, partial curve].
For O=C(Nc1ccccc1Cl)ON=C1c2ccccc2-c2ccccc21, the AC50 [1] was 4.11 µM [falling, partial curve].
